{"source": "patent US6538008B1", "about": "“Combination of a selective NMDA NR2B antagonist and an opioid analgesic” (Merck Sharpe & Dohme Limited, priority 1998, dated 2003)", "data": [{"system": "rotarod performance (motor co-ordination)", "experiment": "Motor co-ordination and behaviour, accelerating rotarod", "details": "rotarod ID50 over ligation ID50", "experimental": "Anti-algesic activity was assessed using an assay of neuropathic pain in rats (sciatic nerve ligation) and in a carrageenan-induced hyperalgesia assay. Motor impairment was measured using an accelerating rotarod.\nFor sciatic nerve ligation, male Sprague Dawley rats (180-220 g) were anaesthetised with isofluorane, the left sciatic nerve exposed and 4 chromic catgut (4.0) ligatures were tied loosely around the nerve (spaced 1-2 mm apart) immediately proximal to the point of trifurcation. In sham-operated animals, the same dissection was performed but without ligation. Responses to mechanical pressure were assessed 7 days after ligation using a modified Randall-Selitto algesiometer in which constant force of 40 mmHg was applied to the hind paw and the latency to struggle was recorded as the reaction time. Mechanical allodynia was defined as the difference in reaction time for sham and ligature rats. Reaction times for drug treated rats were expressed as a percentage of this response. Compounds were administered 1 h before the test. In the carrageenan-induced hyperalgesia assay, male Sprague Dawley rats (100-120 g) received an intraplantar injection of carrageenan (4.5 mg) and mechanical thresholds were determined 3 h later using a modified Ugo Basile Algesiometer. Control rats received saline (0.15 ml i.pl.). Hyperalgesia was defined as the difference in vocalisation threshold for saline- and carrageenan-injected rats. Paw pressure scores for drug-treated rats were expressed as a percentage of this response. Compounds were administered 2 h after carrageenan. To determine the effects of the compounds on motor co-ordination, male Sprague Dawley rats (160-180 g) were first trained to remain for 120 s on the rotarod apparatus revolving at 12 r.p.m. on the morning before the test. […] Lamotrigine, gabapentin and (±)-CP-101,606 were suspended in 0.5% methocel and administered orally (1 ml/kg). Ifenprodil, L-701.324, L-687,414 and (±)-Ro25-6981 were dissolved or suspended in 0.5% methocel and administered intraperitoneally (1 ml/kg). MK-801 was dissolved in distilled water and given i.p. (1 ml/kg). Doses of compounds refer to the free base.\nMale Sprague Dawley rats (100-120 g) received an intraplantar injection of carrageenan (4.5 mg) and mechanical thresholds were determined 3 h later using a modified Ugo Basile Algesiometer. Control rats received saline (0.15 ml i.pl.). Hyperalgesia was defined as the difference in vocalisation threshold for saline- and carrageenan-injected rats. Paw pressure scores for drug-treated rats were expressed as a percentage of this response. Compounds were administered 2 h after carrageenan. To determine the effects of morphine and (±)-Ro25-6981 on motor co-ordination, male Sprague Dawley rats (160-180 g) were first trained to remain for 120 s on the rotarod apparatus revolving at 12 r.p.m. on the morning before the test.\n(±)-Ro25-6981 was suspended in 0.5% methocel and administered intraperitoneally (1 ml/kg). Morphine HCl was dissolved in saline and given subcutaneously (1 ml/kg). Doses of compounds refer to the free base.", "values": [{"compound": "NCC1(CC(=O)O)CCCCC1", "note": "[Gabapentin, gabapentin]", "Ratio Rotarod/Rat Ligation (ID50 motor impairment / ID50 inhibition of allodynia)": 1.5}, {"compound": "CC(C(O)c1ccc(O)cc1)N1CCC(Cc2ccccc2)CC1", "note": "(stereo not shown) [Ifenprodil, ifenprodil]", "Ratio Rotarod/Rat Ligation (ID50 motor impairment / ID50 inhibition of allodynia)": 5.3}, {"compound": "C[C@@H]1CN(O)C(=O)[C@@H]1N", "note": "[L-687,414]", "Ratio Rotarod/Rat Ligation (ID50 motor impairment / ID50 inhibition of allodynia)": 5.4}, {"compound": "O=c1[nH]c2cc(Cl)ccc2c(O)c1-c1cccc(Oc2ccccc2)c1", "note": "[L-701,324]", "Ratio Rotarod/Rat Ligation (ID50 motor impairment / ID50 inhibition of allodynia)": 0.7}, {"compound": "Nc1nnc(-c2cccc(Cl)c2Cl)c(N)n1", "note": "[Lamotrigine, lamotrigine]", "Ratio Rotarod/Rat Ligation (ID50 motor impairment / ID50 inhibition of allodynia)": "> 45"}, {"compound": "C[C@]12N[C@H](Cc3ccccc31)c1ccccc12", "note": "[MK-801]", "Ratio Rotarod/Rat Ligation (ID50 motor impairment / ID50 inhibition of allodynia)": 1.1}, {"compound": "(±)-CP-101,606", "Ratio Rotarod/Rat Ligation (ID50 motor impairment / ID50 inhibition of allodynia)": "> 49"}]}]}
